In patent US20230128688A1, “DIRECTED CONJUGATION TECHNOLOGIES” (KLEO PHARMACEUTICALS, INC., priority 2019, published 2023):
“Also recorded” adds a separate entry of the source. Non-standard residues stand in square brackets, D forms with d. Residues, ends and D or L forms follow the SMILES beside them. *: point of attachment. X2 = O=C(CCOCCOCCOCCOCCOCCOCCNC(=S)Nc1ccc2c(c1)C(=O)OC21c2ccc(O)cc2Oc2cc(O)ccc21)Oc1c(F)cc(CN*)cc1F; PEG4 = NCCOCCOCCOCCOCCC(=O)O

What was measured:
daratumumab [1] = test: Conjugation of reagent to daratumumab, DAR measured by FITC absorbance; conditions: 2.5 M eq of reagent, phosphate buffer saline pH 7.4, 4 h at 25° C.
daratumumab [2] = test: Peptide mapping / mass spectrometry of conjugation sites; type: biochemical; conditions: MS
Denosumab (IgG2) = test: Peptide mapping of conjugation sites, IgG2 antibody; type: biochemical; conditions: borate buffer pH 8.2, 2.5 M eq, 20 h, 25 C
Nivolumab (IgG4) = test: Peptide mapping of conjugation sites, IgG4 antibody; type: biochemical; conditions: borate buffer pH 8.2, 2.5 M eq, 20 h, 25 C

CC(=O)NCc1ccc(OC(=O)CCOCCOCCOCCOCCOCCOCCNC(=S)Nc2ccc3c(c2)C(=O)OC32c3ccc(O)cc3Oc3cc(O)ccc32)c(F)c1 [Compound I-10]
DAR (Drug to antibody ratio; Drug is FITC) (daratumumab [1]): 0.07
conjugation site / selectivity (daratumumab [2]): non-specific conjugation

CNC(=O)OCc1ccc(NC(=O)CCOCCOCCOCCOCCOCCOCCNC(=S)Nc2ccc3c(c2)C(=O)OC32c3ccc(O)cc3Oc3cc(O)ccc32)cc1 [Compound I-64]
DAR (Drug to antibody ratio; Drug is FITC) (daratumumab [1]): 0.13

CNC(=O)OCc1ccc(OC(=O)CCOCCOCCOCCOCCOCCOCCNC(=S)Nc2ccc3c(c2)C(=O)OC32c3ccc(O)cc3Oc3cc(O)ccc32)cc1 [Compound I-62]
DAR (Drug to antibody ratio; Drug is FITC) (daratumumab [1]): 0.05

CC(=O)N[C@@H](CC(=O)O)C(=O)N[C@H]1CSSC[C@@H](C(=O)N[C@H](C(=O)O)[C@@H](C)O)NC(=O)[C@H](Cc2c[nH]c3ccccc23)NC(=O)[C@H](C(C)C)NC(=O)[C@H](CC(C)C)NC(=O)[C@H](CCC(=O)O)NC(=O)CNC(=O)[C@H](CC(C)C)NC(=O)[C@H](CCCCNC(=O)OCc2ccc(OC(=O)CCOCCOCCOCCOCCOCCOCCNC(=S)Nc3ccc4c(c3)C(=O)OC43c4ccc(O)cc4Oc4cc(O)ccc43)cc2)NC(=O)[C@H](Cc2c[nH]c3ccccc23)NC(=O)[C@H](C)NC1=O [Compound I-61]
DAR (Drug to antibody ratio; Drug is FITC) (daratumumab [1]): 0.88

CC(=O)NCC(=O)N[C@@H](CO)C(=O)N[C@@H](Cc1ccc(O)cc1)C(=O)N[C@@H](Cc1c[nH]c2ccccc12)C(=O)N[C@@H](Cc1ccc(O)cc1)C(=O)N[C@@H](CC(=O)O)C(=O)N[C@H](C(=O)N[C@@H](Cc1c[nH]c2ccccc12)C(=O)N[C@@H](Cc1ccccc1)C(=O)NCCOCCOCCOCCOCCC(=O)NCc1cc(F)c(OC(=O)CCOCCOCCOCCOCCOCCOCCNC(=S)Nc2ccc3c(c2)C(=O)OC32c3ccc(O)cc3Oc3cc(O)ccc32)c(F)c1)C(C)C [Compound I-45] (Ac-GSYWYDVWF[PEG4]-X2)
conjugation site / selectivity (daratumumab [2]): K246/K248 of antibody heavy chains

CC(=O)N[C@@H](CC(=O)O)C(=O)N[C@H]1CSSC[C@@H](C(=O)N[C@H](C(=O)O)[C@@H](C)O)NC(=O)[C@H](Cc2c[nH]c3ccccc23)NC(=O)[C@H](C(C)C)NC(=O)[C@H](CC(C)C)NC(=O)[C@H](CCC(=O)O)NC(=O)CNC(=O)[C@H](CC(C)C)NC(=O)[C@H](CC(=O)NCc2cc(F)c(NS(=O)(=O)C3CCCC=C3C(=O)OCCOCCOCCOCCOCCOCCOCCNC(=S)Nc3ccc4c(c3)C(=O)OC43c4ccc(O)cc4Oc4cc(O)ccc43)c(F)c2)NC(=O)[C@H](Cc2c[nH]c3ccccc23)NC(=O)[C@H](C)NC1=O (stereo partly drawn) [Compound I-59]
DAR (Drug to antibody ratio; Drug is FITC) (daratumumab [1]): 0.71

CC(=O)NCc1cc(F)c(NS(=O)(=O)C2CCCC=C2C(=O)OCCOCCOCCOCCOCCOCCOCCNC(=S)Nc2ccc3c(c2)C(=O)OC32c3ccc(O)cc3Oc3cc(O)ccc32)c(F)c1 (stereo not drawn) [Compound I-60]
DAR (Drug to antibody ratio; Drug is FITC) (daratumumab [1]): 0.23

CC(=O)N[C@@H](CC(=O)O)C(=O)N[C@H]1CSSC[C@@H](C(=O)N[C@H](C(=O)O)[C@@H](C)O)NC(=O)[C@H](Cc2c[nH]c3ccccc23)NC(=O)[C@H](C(C)C)NC(=O)[C@H](CC(C)C)NC(=O)[C@H](CCC(=O)O)NC(=O)CNC(=O)[C@H](CC(C)C)NC(=O)[C@H](CCCCNC(=O)OCc2ccc(NC(=O)CCOCCOCCOCCOCCOCCOCCNC(=S)Nc3ccc4c(c3)C(=O)OC43c4ccc(O)cc4Oc4cc(O)ccc43)cc2)NC(=O)[C@H](Cc2c[nH]c3ccccc23)NC(=O)[C@H](C)NC1=O [Compound I-63]
DAR (Drug to antibody ratio; Drug is FITC) (daratumumab [1]): 0.81

CC(=O)N[C@@H](CC(=O)O)C(=O)N[C@H]1CSSC[C@@H](C(=O)N[C@H](C(=O)O)[C@@H](C)O)NC(=O)[C@H](Cc2c[nH]c3ccccc23)NC(=O)[C@H](C(C)C)NC(=O)[C@H](CC(C)C)NC(=O)[C@H](CCC(=O)O)NC(=O)CNC(=O)[C@H](CC(C)C)NC(=O)[C@H](CC(=O)NCc2ccc(OC(=O)CCOCCOCCOCCOCCOCCOCCOCCOCCNC(=S)Nc3ccc4c(c3)C(=O)OC43c4ccc(O)cc4Oc4cc(O)ccc43)c(F)c2)NC(=O)[C@H](Cc2c[nH]c3ccccc23)NC(=O)[C@H](C)NC1=O [Compound I-44]
DAR (Drug to antibody ratio; Drug is FITC) (daratumumab [1]): 0.96
conjugation site / selectivity (Denosumab (IgG2)): specific conjugation
conjugation site / selectivity (Denosumab (IgG2); listed as 1-44): residue 251 and/or 253 of a heavy chain of IgG2
conjugation site / selectivity (daratumumab [2]): K246 and/or K248 of the heavy chain; also recorded: selectively provide conjugation at sites 246 or 248 of heavy chains
conjugation site / selectivity (Nivolumab (IgG4)): efficient and specific conjugation
conjugation site / selectivity (Nivolumab (IgG4); listed as 1-44): residue 239 and/or 241 of a heavy chain of IgG2
